We go through 93 compounds from PubChem BioAssay AID638 (SRMLSC, 2007).

Molecules are shown by their SMILES. About 65 (5%) of roughly 1,300 compounds were called active.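 The calls were made as follows: active = growth inhibition reaching a set limit at one or more tested doses; inactive = the rest.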 The list shows a part of the results. Measured potencies and affinities stand elsewhere.

A short description of this test: wild-type E. coli BW25113 antibacterial activity – OD615, dose response (AID 638). Particulars: at 100 µM (top of the series) unless noted. The method, boiled down:
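Assay system: E. coli BW25113 wild type; buffer or medium: Kanamycin-supplemented LB broth; signal: optical density (absorbance) at 615 nm; controls: chloramphenicol 30 µM control; doses: compound concentration series; times: bacterial exposure to compound 20 h at 37 °C; evaluation: IC50 from 4-parameter logistic, bounds fixed 0–100%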
With `COc1cc(-c2nc(-c3cccc(C)c3)no2)cc(OC)c1OC`, the growth inhibition is inactive: -1.68%.
As for `O=C(NCc1ccc2c(c1)OCO2)c1ccc(COc2cccc(Cl)c2)o1`, the figure is inactive: -1.19%; as for `Cc1cc(-c2ccco2)c(C#N)c2nc3ccccc3n12`, inactive: -4.65%.
As for `c1ccc(-c2nc(N3CCCCCC3)c3ccccc3n2)nc1`, the figure is inactive: 17.1% [at 50 µM].
Turning to `C=CCn1c(SCC(=O)Nc2ccc3c(c2)CCC3)nnc1-c1cccs1`, the growth inhibition is inactive: -1.56%.
As for `Cc1cccc(N2C(N)=C(C#N)C(C#N)(C#N)C2c2ccccc2)c1` (stereo not drawn), the figure is inactive: -0.76%; as for `CCN1C(=O)CSC1=NC1C2CC3CC(C2)CC1C3` (stereo not drawn), inactive: 9.49%; as for `Cc1cc(OCCCC(=O)N2CCCCC2)cc(C)c1Cl`, inactive: -2.2%.
As for `CCc1nc2ccccc2c(=O)n1NC(=O)c1c(O)c2cccc3c2n(c1=O)CCC3`, the figure is inactive: -13.7%; as for `CC(=O)c1ccccc1OCC(O)CN1CCN(C(c2ccccc2)c2ccccc2)CC1` (stereo not drawn), inactive: -7.24%; as for `CCOC(=O)c1c(NC(=O)CN2CCCCC2)sc2c1CCN(C(=O)OCC)C2`, inactive: -12.4%.
As for `Oc1ccc(-c2[nH]ncc2-c2ccc(Cl)cc2)c(O)c1`, the figure is inactive: 17.8%; as for `CCN1/C(=C(\O)c2ccccc2)C(=O)c2ccccc2S1(=O)=O`, inactive: -3.95%; as for `O=C(Nc1nnc(-c2ccc(Cl)cc2)o1)c1ccccc1Br`, inactive: 5.98% [at 50 µM].
Turning to `N#Cc1nc(-c2ccc(OCc3ccccc3)cc2)oc1NCCCn1ccnc1`, the growth inhibition was inactive: 18.4%.
As for `CC1Cc2cc(-c3csc(NC(=O)Cc4cccs4)n3)ccc2N1S(C)(=O)=O` (stereo not drawn), the figure is inactive: -20.5%; as for `CCOC(=O)C1=C(C)NC(SCC(=O)Nc2cc(C)on2)=C(C#N)C1c1cccs1` (stereo not drawn), inactive: 3.97%; as for `Cc1ccc(C)c(C(=O)CSc2n[nH]c(-c3ccncc3)n2)c1`, inactive: 6.84%.
As for `CCN(c1cccc(C(F)(F)F)c1)S(=O)(=O)c1ccc2c(c1)CCN2C(=O)C1CC1`, the figure is inactive: 4.36%.
As for `Brc1cccc(-c2n[nH]c(-c3ccccc3)n2)c1`, the growth inhibition is inactive: -2.8%.
As for `O=C(COc1ccc(Cl)cc1)Nc1nc(-c2cccs2)cs1`, the figure is inactive: -4.14%; as for `CCn1cc(C(=O)O)c(=O)c2cc(OC)ccc21`, inactive: 19.6%.
As for `COc1ccc2c(c1)sc1nc(-c3ccccc3)cn12`, the figure is inactive: -8.31%; as for `CSc1ccc(-c2cc(=O)c3ccccc3o2)cc1`, inactive: 10.8%; as for `O=C(Nc1ccccc1N1CCCCC1)c1cccs1`, inactive: 1.03%.
As for `CCOc1ccccc1C(=O)NC(C(=O)OCC(=O)Nc1nnc(-c2ccccc2)o1)C(C)C` (stereo not drawn), the figure is inactive: 4.14%; as for `Cc1ccc(-c2nnc(SCC(=O)N3CC(C)CC(C)C3)o2)cc1C` (stereo not drawn), inactive: 3.62%.
In the case of `CCCc1ccc(Oc2cn[nH]c2-c2ccc(O)c(C)c2O)cc1`, the growth inhibition was inactive: 10.4%.
As for `Cn1c(-c2ccccc2)cc2c3no[n+]([O-])c3ccc21`, the figure is inactive: -8.83%; as for `Cc1c(C(=O)N2CCCCC2)oc2ccc(S(=O)(=O)N3CC(C)CC(C)C3)cc12` (stereo not drawn), inactive: -3.91%; as for `Cc1ccc(/C(O)=C2\C(=O)C(=O)N(c3cc(C)on3)C2c2cccc(Br)c2)cc1` (stereo not drawn), inactive: 3.58%.
As for `COc1cccc(N2CC(C(=O)Nc3ccc(C(=O)OC(C)C)cc3)CC2=O)c1` (stereo not drawn), the figure is inactive: 5.31%.
As for `C=C(C)COc1ccc(-c2[nH]ncc2Oc2ccccc2OCC)c(O)c1`, the figure is inactive: 1.48%; as for `N#Cc1nc(Cc2cccc3ccccc23)oc1NCc1ccc(F)cc1`, active: 20%.
For the compound `CCc1c(C(=O)Nc2ncn(Cc3cccc(C)c3)n2)csc1C`, the growth inhibition is inactive: 5.41%.
As for `C#CCSc1nnc(-c2cccc3ccccc23)o1`, the figure is inactive: 5.43%.
With `COC(=O)c1ccc(NC(=O)CN2CCN(c3cccc(Cl)c3)CC2)cc1`, the growth inhibition is inactive: -2.21%.
As for `CCN(C1CCCCC1)S(=O)(=O)c1ccc(OC)c(C)c1`, the figure is inactive: 18.2%.
As for `O=C(COc1c(F)c(F)c(C(F)(F)F)c(F)c1F)Nc1ccc(N2CCOCC2)c(Cl)c1`, the figure is inactive: 13.3%.
Turning to `Cc1cccnc1NC(=O)c1c(O)c2cccc3c2n(c1=O)CCC3`, the growth inhibition is inactive: 0.91%.
Take `O=S(=O)(Nc1nnc(-c2ccccc2)s1)c1ccc(Cl)cc1`: the growth inhibition is inactive: 0.26%.
As for `Cc1ccc(-c2noc(CCC(=O)N3CCCc4ccccc43)n2)cc1`, the figure is inactive: 8.79%.
As for `Clc1ccc(OCc2nn3c(C4CCCCC4)nnc3s2)cc1`, the figure is inactive: 12.1%; as for `COc1ccc(C(C(O)C(=O)c2c[nH]c3ccccc23)N2CCN(c3ccccc3)CC2)cc1` (stereo not drawn), inactive: 10.2%.
As for `O=C(c1ccccc1CCc1ccccc1)N1CCN(c2ccccn2)CC1`, the figure is inactive: 2.12%.
In the case of `CCC(C)(C)n1nnnc1C(c1cc2ccc(OC)cc2[nH]c1=O)N1CCc2ccccc2C1` (stereo not drawn), the growth inhibition was inactive: -10.1%.
As for `Cc1c(C(=O)OC2CCCC2C)[nH]c2c1C(=O)CCC2` (stereo not drawn), the figure is inactive: 12%.
As for `CCN(C(=O)c1ccc(C(C)(C)C)cc1)c1nnc(Cn2nnc3ccccc32)s1`, the figure is inactive: -8.83%; as for `CCSc1nnc(NC(=O)CSc2nccn2-c2cccc(C)c2C)s1`, inactive: 2.99%.
As for `O=C(NCC1CCCO1)c1sc(=S)n2c1[nH]c(=O)c1ccc(C(=O)N3CCCCC3)cc12` (stereo not drawn), the figure is inactive: 5.82%; as for `CCOC(=O)c1cccc2c1-c1ccccc1/C2=N/O`, inactive: -9.29%; as for `Cc1ccc(Nc2nc(CSc3nnnn3-c3ccccc3)cs2)cc1`, inactive: -16.8%.
`CCC(Oc1ccccc1)C(=O)Nc1ccc(-c2nnc(-c3ccco3)o2)cc1` (stereo not drawn): the growth inhibition was inactive: -9.73%.
`O=C(CCC1CCCC1)c1c(O)c2ccccc2oc1=O`: the growth inhibition was inactive: 6.25%.
As for `COc1ccc(CCN2C(=O)c3[nH]nc(-c4ccccc4O)c3C2c2ccc(C)cc2)cc1OC` (stereo not drawn), the figure is inactive: -7.61%; as for `Cc1cc(S(=O)(=O)N2CCN(c3ccccc3C)CC2)ccc1F`, inactive: -8.19%.
As for `CCOc1cccc(NC(=O)C2CC(=O)N(C)C(=Nc3cccc(F)c3)S2)c1` (stereo not drawn), the figure is inactive: -6.98%; as for `COc1ccc(CCNc2oc(COc3ccc(F)cc3)nc2C#N)cc1`, inactive: -4.26%.
Turning to `N#Cc1nc(COc2ccc(-c3ccccc3)cc2)oc1NCc1cccnc1`, the growth inhibition was inactive: -10.3%.
As for `CNc1nc(Nc2ccc(C(C)=O)cc2)nc(OC(C(F)(F)F)C(F)(F)F)n1`, the figure is inactive: 3.95%.
As for `COCCCN1C(=O)c2[nH]nc(-c3ccccc3O)c2C1c1ccc(Cl)cc1` (stereo not drawn), the figure is inactive: 5.26%.
As for `O=c1[nH]c(NCCCO)nc2c1C1(CCCC1)Cc1ccccc1-2`, the figure is inactive: 2.85%; as for `COc1ccc(OC)c(Nc2nc(-c3cccs3)cs2)c1`, inactive: -6.46%.
`COc1ccccc1N1CCN(C(=O)c2cc(-c3ccc(C)cc3)on2)CC1`: the growth inhibition is inactive: -0.92%.
As for `CCC(c1nnnn1C1CCCCC1)N(Cc1ccco1)Cc1cc2ccc(OC)cc2[nH]c1=O` (stereo not drawn), the figure is inactive: -1.41%; as for `Cc1ccccc1CSc1nc2n(n1)C(c1cccs1)C1=C(CCCC1=O)N2` (stereo not drawn), inactive: -14.8%; as for `COc1ccc(Cn2c(=O)sc3ccccc32)cc1`, inactive: 10.8%.
As for `Cc1cccc(N2CCN(C(=O)Cc3c(C(=O)O)[nH]c4ccc(Cl)cc34)CC2)c1C`, the figure is inactive: -0.2%; as for `O=C(c1noc2c1CCc1ccccc1-2)N1CCCc2ccccc21`, inactive: -6.98%.
As for `COc1ccc(C2CC(c3ccccc3)n3nc(NC(=O)c4cccs4)nc3N2)cc1` (stereo not drawn), the figure is inactive: 3.83%; as for `O=C(NC1CCCCCCC1)c1ccccc1O`, inactive: 4.81%; as for `CCOc1ccc(NS(=O)(=O)c2ccc(SC)cc2)cc1`, inactive: 11.9%.
`Cc1ccc(C)n1-n1cnc2sc(-c3ccccc3)cc2c1=O`: the growth inhibition is inactive: -14.3%.
Turning to `CC1=C(C(=O)OC(C)C)C(c2c[nH]c3ccccc23)n2ncnc2N1` (stereo not drawn), the growth inhibition is inactive: -1.8%.
As for `O=C(c1noc2c1CCc1ccccc1-2)N1CCc2ccccc2C1`, the figure is inactive: 2.46%; as for `Cc1c(CCC(=O)O)c(=O)oc2cc3occ(-c4ccc(F)cc4)c3cc12`, inactive: -11.1%; as for `O=C(CCSc1nc(-c2ccco2)cc(C(F)(F)F)n1)N1CCCc2ccccc21`, inactive: 10.2%.
As for `CC1CN(S(=O)(=O)c2ccc(C(=O)Nc3nnc(-c4ccc5c(c4)CCCC5)o3)cc2)CC(C)O1` (stereo not drawn), the figure is inactive: -1.85%.
As for `Cc1cc(Nc2ccccc2)nc(-c2ccccc2O)n1`, the figure is inactive: -4.57%; as for `CCn1cc(C(=O)OCC(=O)OC2CC(C)CCC2C(C)C)c(=O)c2ccc(C)nc21` (stereo not drawn), inactive: 1.12%; as for `CC1=CCC(COC(=O)Nc2ccccc2)CC1` (stereo not drawn), inactive: 10.3%.
For `COC(=O)c1[nH]c2cccc(OC)c2c1NC(=O)CN1CC2(C)CC1CC(C)(C)C2` (stereo not drawn), the growth inhibition is inactive: 14%.
As for `C=CCOC(=O)C(C#N)c1nc2ccccc2nc1N1CCCC1` (stereo not drawn), the figure is inactive: -1.85%; as for `CCOC(=O)c1cn(CC)c2cc(N3CCSCC3)c(F)cc2c1=O`, inactive: 10.1%; as for `COCc1cc(C)nc2sc3c(=O)oc(C)nc3c12`, inactive: 10.4%.
Regarding `Cc1nc2ncnn2c(N2CCN(C(c3ccccc3)c3ccccc3)CC2)c1C`, the growth inhibition was inactive: 0.39%.
As for `O=C(COC(=O)c1ccc(Oc2ccccc2)cc1)Nc1nnc(-c2ccccc2)o1`, the figure is inactive: -3.62%; as for `Cc1cc(=O)[nH]c(SCC(=O)C23CC4CC(CC(C4)C2)C3)c1C#N`, inactive: -9.63%.
Regarding `CCOC(=O)c1ccccc1NC(=O)C(C)Oc1ccccc1` (stereo not drawn), the growth inhibition is inactive: -0.25%.
Take `CCCOc1ccccc1NC(=O)c1c(-c2ccccc2)noc1C`: the growth inhibition was inactive: 4.48%.
As for `Cc1ccc(Cl)cc1N1CCN(C(=O)c2ccc(NS(=O)(=O)c3c(C)noc3C)cc2)CC1`, the figure is inactive: -7.75%.
As for `CCCCOc1ccc(S(=O)(=O)N2CCCCCC2)cc1`, the figure is inactive: 6.59%; as for `O=C(Nc1nnc(-c2ccc(F)cc2)o1)c1ccco1`, inactive: 1.59%.
